{"source": "patent EP0546013B1", "about": "“GLUCAGON ANALOGS WITH ASP-9 REPLACEMENTS OR DELETIONS” (THE ROCKEFELLER UNIVERSITY, priority 1990, dated 1997)", "tested_on": "glucagon receptors", "design": "species or system male Sprague-Dawley rats", "settings": "relative binding affinity = half maximal displacement concentration of glucagon / that of analog x 100; 125I-labeled glucagon 1.6 nM; measured as amides", "note": "Part of at least one peptide drawing is inferred or uncertain, most often the ends. Ends that are not written are not given here.", "data": [{"substance": "HSQGTFTSYSKYLDSRRAQDFVQWLMNT-NH2 [compound 2, des-Asp^9]", "values": [{"measurement": "% Binding Affinity", "result": 45, "unit": "%"}]}]}
